Measurements reported in patent US20190100594A1.

B1: hzC06v3.1 (VHH)
VHH: EVQLLESGGGEVQPGGSLRLSCAASGSVFSIDAMGWYRLAPGQQRELVAVLSGISSAKYAESVKGRFTISRDNAKNTLYLQMSSLRAEDTAVYYCYADVSTGWGRDAHGYWGQGTLVTV
B2: hzC06v1.3 (VHH)
VHH: EVQLLESGGGEVQPGGSLRLSCAASGSVFSIDAMGWYRQAPGKQRELVSALSGISSATYAESVKGRFTISRDNAKNTLYLQMSSLRAEDTAVYYCYADVSTGWGRDAHGYWGQGTLVTV
B3: hzC06v3.4 (VHH)
VHH: EVQLLESGGGEVQPGGSLRLSCAASGSVFSIDAMGWYRQAPGKQRELVAVLSGISSAKYAESVKGRFTISRDNAKNTVYLQMSSLRAEDTAVYYCYADVSTGWGRDAHGYWGQGTLVTV
B4: hzC06v1.4 (VHH)
VHH: EVQLLESGGGEVQPGGSLRLSCAASGSVFSIDAMGWYRQAPGQQRELVSALSGISSATYAESVKGRFTISRDNAKNTLYLQMSSLRAEDTAVYYCYADVSTGWGRDAHGYWGQGTLVTV
B5: hzC06v1.1 (VHH)
VHH: EVQLLESGGGEVQPGGSLRLSCAASGSVFSIDAMGWYRQAPGKGLELVSALSGISSATYAESVKGRFTISRDNAKNTLYLQMSSLRAEDTAVYYCYADVSTGWGRDAHGYWGQGTLVTV
B6: hzC06v3.9 (VHH)
VHH: EVQLLESGGGEVQPGGSLRLSCAASGSVFSIDAMGWYRQAPGKQRELVAVLSGISSAKYAASAPGRFTISRDNAKNTVYLQMSSLRAEDTAVYYCYADVSTGWGRDAHGYWGQGTLVTV
B7: hzC06v2.3 (VHH)
VHH: EVQLLESGGGEVQPGGSLRLSCAASGSVFSIDAMGWYRQAPGKQRELVAVLSGISSATYAESVKGRFTISRDNAKNTLYLQMSSLRAEDTAVYYCYADVSTGWGRDAHGYWGQGTLVTV
B8: hzC06v3.5 (VHH)
VHH: EVQLLESGGGEVQPGGSLRLSCAASGSVFSIDAMGWYRQAPGKQRELVAVLSGISSAKYAESVKGRFTISRASAPNTLYLQMSSLRAEDTAVYYCYADVSTGWGRDAHGYWGQGTLVTV
B9: hzC06v2.2 (VHH)
VHH: EVQLLESGGGEVQPGGSLRLSCAASGSVFSIDAMGWYRQAPGKGRELVAVLSGISSATYAESVKGRFTISRDNAKNTLYLQMSSLRAEDTAVYYCYADVSTGWGRDAHGYWGQGTLVTV
B10: hzC06v2.1 (VHH)
VHH: EVQLLESGGGEVQPGGSLRLSCAASGSVFSIDAMGWYRQAPGKGLELVAVLSGISSATYAESVKGRFTISRDNAKNTLYLQMSSLRAEDTAVYYCYADVSTGWGRDAHGYWGQGTLVTV
B11: hzC06v3.10 (VHH)
VHH: EVQLLESGGGEVQPGGSLRLSCAASGSVFSIDAMGWYRQAPGKQRELVAVLSGISSAKYADAVKGRFTISRASAPNTVYLQMSSLRAEDTAVYYCYADVSTGWGRDAHGYWGQGTLVTV
B12: hzC06v3.11 (VHH)
VHH: EVQLLESGGGEVQPGGSLRLSCAASGSVFSIDAMGWYRQAPGKQRELVAVLSGISSAKYADAVEGRFTISRASAPNTVYLQMSSLRAEDTAVYYCYADVSTGWGRDAHGYWGQGTLVTV
B13: hzC06v3.8 (VHH)
VHH: EVQLLESGGGEVQPGGSLRLSCAASGSVFSIDAMGWYRQAPGKQRELVAVLSGISSAKYAASAPGRFTISRDAVENTVYLQMSSLRAEDTAVYYCYADVSTGWGRDAHGYWGQGTLVTV
B14: hzC06v3.6 (VHH)
VHH: EVQLLESGGGEVQPGGSLRLSCAASGSVFSIDAMGWYRQAPGKQRELVAVLSGISSAKYAESVKGRFTISRASAPNTVYLQMSSLRAEDTAVYYCYADVSTGWGRDAHGYWGQGTLVTV
B15: hzC06v1.2 (VHH)
VHH: EVQLLESGGGEVQPGGSLRLSCAASGSVFSIDAMGWYRQAPGKGRELVSALSGISSATYAESVKGRFTISRDNAKNTLYLQMSSLRAEDTAVYYCYADVSTGWGRDAHGYWGQGTLVTV
B16: hzC06v3.7 (VHH)
VHH: EVQLLESGGGEVQPGGSLRLSCAASGSVFSIDAMGWYRQAPGKQRELVAVLSGISSAKYAASAPGRFTISRDAVKNTVYLQMSSLRAEDTAVYYCYADVSTGWGRDAHGYWGQGTLVTV
B17: hzC06v3.12 (VHH)
VHH: EVQLLESGGGEVQPGGSLRLSCAASGSVFSIDAMGWYRQAPGKQRELVAVLSGISSAKYAASAPGRFTISRASAPNTVYLQMSSLRAEDTAVYYCYADVSTGWGRDAHGYWGQGTLVTV
B18: hzC06v3.3 (VHH)
VHH: EVQLLESGGGEVQPGGSLRLSCAASGSVFSIDAMGWYRQAPGKQRELVAVLSGISSAKYAESVKGRFTISRDSAKNAVYLQMDGLKPEDTAVYYCYADVSTGWGRDAHGYWGQGTLVTV
B19: hzC06v3.2 (VHH)
VHH: EVQLLESGGGEVQPGGSLRLSCAASGSVFSIDAMGWYRQAPGKQRELVAVLSGISSAKYADSVKGRFTISGDNAKNTLYLQMSSLRAEDTAVYYCYADVSTGWGRDAHGYWGQGTLVTV
B20: hzCC04v5 (VHH)
VHH: EVQLLESGGGEVQPGGSLRLSCAASGFTFSTHGMDWFRQAPGKDLEWVSAIQSGGSWTSYASSVKGRFTISRDNAKNTLYLQMSSLRAEDTAVYWCQNRVTRGQGTLVTV
B21: hzCC04v5.6 (VHH)
VHH: EVQLLESGGGEVQPGGSLRLSCAASGFTFSTHGMDWFRQAPGKDLEWVSAIQSGGSWTSYASSVKGRFTISRDNAKNTLYLQMQNLRAEDTAVYWCQNRVTRGQGTLVTV
B22: hzCC04v5.4 (VHH)
VHH: EVQLLESGGGEVQPGGSLRLSCAASGFTFSTHGMDWFRQAPGKDLEWVSAIQSGGSWTSYASSVKGRFTISRDNAKNTLYLQMSSLRPEDTAVYWCQNRVTRGQGTLVTV
B23: hzCC04v5.9 (VHH)
VHH: EVQLLESGGGEVQPGGSLRLSCAASGFTFSTHGMDWFRQAPGKDLEWVSAIQSGGSWTSYASSVKGRFTISRDNAKNTLYLQMDDLRAEDTAVYWCQNRVTRGQGTLVTV
B24: hzCC04v5.11 (VHH)
VHH: EVQLLESGGGEVQPGGSLRLSCAASGFTFSTHGMDWFRQAPGKDLEWVSAIQSGGSWTSYASSVKGRFTISRDNAKNTLYLQMNQLRAEDTAVYWCQNRVTRGQGTLVTV
B25: hzCC04v5.2 (VHH)
VHH: EVQLLESGGGEVQPGGSLRLSCAASGFTFSTHGMDWFRQAPGKDLEWVSAIQSGGSWTSYASSVKGRFTISRDNAKNTLYLQMNNLRAEDTAVYWCQNRVTRGQGTLVTV
B26: hzCC04v5.7 (VHH)
VHH: EVQLLESGGGEVQPGGSLRLSCAASGFTFSTHGMDWFRQAPGKDLEWVSAIQSGGSWTSYASSVKGRFTISRDNAKNTLYLQMDNLRAEDTAVYWCQNRVTRGQGTLVTV
B27: hzCC04v5.5 (VHH)
VHH: EVQLLESGGGEVQPGGSLRLSCAASGFTFSTHGMDWFRQAPGKDLEWVSAIQSGGSWTSYASSVKGRFTISRDNAKNTLYLQMQQLRAEDTAVYWCQNRVTRGQGTLVTV
B28: hzCC04v1.2.1 (VHH)
VHH: EVQLLESGGGEVQPGGSLRLSCAASGFTFSTHGMDWFRQAPGKDLEWVSAINQGGSWTSYASSVKGRFTISRDNAKNTLYLQMSSLRAEDTAVYYCQNRVTRGQGTLVTV
B29: hzCC04v5.8 (VHH)
VHH: EVQLLESGGGEVQPGGSLRLSCAASGFTFSTHGMDWFRQAPGKDLEWVSAIQSGGSWTSYASSVKGRFTISRDNAKNTLYLQMNDLRAEDTAVYWCQNRVTRGQGTLVTV
B30: hzCC04v5.12 (VHH)
VHH: EVQLLESGGGEVQPGGSLRLSCAASGFTFSTHGMDWFRQAPGKDLEWVSAIQSGGSWTSYASSVKGRFTISRDNAKNTLYLQMSNLRAEDTAVYWCQNRVTRGQGTLVTV
B31: hzCC04v5.1 (VHH)
VHH: EVQLLESGGGEVQPGGSLRLSCAASGFTFSTHGMDWFRQAPGKDLEWVSAIQSGGSWTSYASSVKGRFTISRDNAKNTLYLEMNNLKPEDTAVYWCQNRVTRGQGTLVTV
B32: hzCC04v5.10 (VHH)
VHH: EVQLLESGGGEVQPGGSLRLSCAASGFTFSTHGMDWFRQAPGKDLEWVSAIQSGGSWTSYASSVKGRFTISRDNAKNTLYLQMQDLRAEDTAVYWCQNRVTRGQGTLVTV
B33: hzCC04v5.3 (VHH)
VHH: EVQLLESGGGEVQPGGSLRLSCAASGFTFSTHGMDWFRQAPGKDLEWVSAIQSGGSWTSYASSVKGRFTISRDNAKNTLYLEMSSLRAEDTAVYWCQNRVTRGQGTLVTV

molecular target: cyno GITR-CHO (cynomolgus monkey); assay: flow cytometry on cyno GITR-CHO cells

binding, binds:
B1
B2
B3
B4
B5
B6
B7
B8
B9
B10
B11
B12
B13
B14
B15
B16
B17
B18
B19
B20
B21
B22
B23
B24
B25
B26
B27
B28
B29
B30
B31
B32
B33

Results are given in words; binding and its absence hold for the method and conditions named. Binding can be weak; no strength is given.
